Experimental data: patent publication US20060257938A1, “Method of screening for drugs that block ligand binding to a lipid binding protein” (priority 2005, published 2006)

B1: 102F, 72A (protein, listed as Rattus norvegicus)
chain: AFDGTWKVDRNENYEKFMEKMGINVVKRKLGAHDNLKLTITQEGNKFTVKESSNFRNIDVVFELGVDFAYSAADGTELTGTWTMEGNKLVGKFKRVDNGKEFIAVREISGNELIQTYTYEGVEAKRIFKKE
modifications: PEPTIDE (1)...(131) wild-type rat intestinal fatty acid binding protein
B2: 119S, 72A (protein, listed as Rattus norvegicus)
chain: AFDGTWKVDRNENYEKFMEKMGINVVKRKLGAHDNLKLTITQEGNKFTVKESSNFRNIDVVFELGVDFAYSAADGTELTGTWTMEGNKLVGKFKRVDNGKELIAVREISGNELIQTYTSEGVEAKRIFKKE
modifications: PEPTIDE (1)...(131) wild-type rat intestinal fatty acid binding protein
B3: 119K, 72A (protein, listed as Rattus norvegicus)
chain: AFDGTWKVDRNENYEKFMEKMGINVVKRKLGAHDNLKLTITQEGNKFTVKESSNFRNIDVVFELGVDFAYSAADGTELTGTWTMEGNKLVGKFKRVDNGKELIAVREISGNELIQTYTKEGVEAKRIFKKE
modifications: PEPTIDE (1)...(131) wild-type rat intestinal fatty acid binding protein
B4: 14D, 72A (protein, listed as Rattus norvegicus)
chain: AFDGTWKVDRNENDEKFMEKMGINVVKRKLGAHDNLKLTITQEGNKFTVKESSNFRNIDVVFELGVDFAYSAADGTELTGTWTMEGNKLVGKFKRVDNGKELIAVREISGNELIQTYTYEGVEAKRIFKKE
modifications: PEPTIDE (1)...(131) wild-type rat intestinal fatty acid binding protein
B5: 102G, 72A (protein, listed as Rattus norvegicus)
chain: AFDGTWKVDRNENYEKFMEKMGINVVKRKLGAHDNLKLTITQEGNKFTVKESSNFRNIDVVFELGVDFAYSAADGTELTGTWTMEGNKLVGKFKRVDNGKEGIAVREISGNELIQTYTYEGVEAKRIFKKE
modifications: PEPTIDE (1)...(131) wild-type rat intestinal fatty acid binding protein
B6: 126H, 72A (protein, listed as Rattus norvegicus)
chain: AFDGTWKVDRNENYEKFMEKMGINVVKRKLGAHDNLKLTITQEGNKFTVKESSNFRNIDVVFELGVDFAYSAADGTELTGTWTMEGNKLVGKFKRVDNGKELIAVREISGNELIQTYTYEGVEAKHIFKKE
modifications: PEPTIDE (1)...(131) wild-type rat intestinal fatty acid binding protein
B7: 126L, 72A (protein, listed as Rattus norvegicus)
chain: AFDGTWKVDRNENYEKFMEKMGINVVKRKLGAHDNLKLTITQEGNKFTVKESSNFRNIDVVFELGVDFAYSAADGTELTGTWTMEGNKLVGKFKRVDNGKELIAVREISGNELIQTYTYEGVEAKLIFKKE
modifications: PEPTIDE (1)...(131) wild-type rat intestinal fatty acid binding protein
B8: 102H, 72A (protein, listed as Rattus norvegicus)
chain: AFDGTWKVDRNENYEKFMEKMGINVVKRKLGAHDNLKLTITQEGNKFTVKESSNFRNIDVVFELGVDFAYSAADGTELTGTWTMEGNKLVGKFKRVDNGKEHIAVREISGNELIQTYTYEGVEAKRIFKKE
modifications: PEPTIDE (1)...(131) wild-type rat intestinal fatty acid binding protein
B9: 14A, 72A (protein, listed as Rattus norvegicus)
chain: AFDGTWKVDRNENAEKFMEKMGINVVKRKLGAHDNLKLTITQEGNKFTVKESSNFRNIDVVFELGVDFAYSAADGTELTGTWTMEGNKLVGKFKRVDNGKELIAVREISGNELIQTYTYEGVEAKRIFKKE
modifications: PEPTIDE (1)...(131) wild-type rat intestinal fatty acid binding protein
B10: 119Q, 72A (protein, listed as Rattus norvegicus)
chain: AFDGTWKVDRNENYEKFMEKMGINVVKRKLGAHDNLKLTITQEGNKFTVKESSNFRNIDVVFELGVDFAYSAADGTELTGTWTMEGNKLVGKFKRVDNGKELIAVREISGNELIQTYTQEGVEAKRIFKKE
modifications: PEPTIDE (1)...(131) wild-type rat intestinal fatty acid binding protein
B11: 126V, 72A (protein, listed as Rattus norvegicus)
chain: AFDGTWKVDRNENYEKFMEKMGINVVKRKLGAHDNLKLTITQEGNKFTVKESSNFRNIDVVFELGVDFAYSAADGTELTGTWTMEGNKLVGKFKRVDNGKELIAVREISGNELIQTYTYEGVEAKVIFKKE
modifications: PEPTIDE (1)...(131) wild-type rat intestinal fatty acid binding protein
B12: 11Y1, 72A (protein, listed as Rattus norvegicus)
chain: AFDGTWKVDRYENYEKFMEKMGINVVKRKLGAHDNLKLTITQEGNKFTVKESSNFRNIDVVFELGVDFAYSAADGTELTGTWTMEGNKLVGKFKRVDNGKELIAVREISGNELIQTYTYEGVEAKRIFKKE
modifications: PEPTIDE (1)...(131) wild-type rat intestinal fatty acid binding protein
B13: 11Y1, L72A (protein, listed as Rattus norvegicus)
chain: AFDGTWKVDRYENYEKFMEKMGINVVKRKLGAHDNLKLTITQEGNKFTVKESSNFRNIDVVFELGVDFAYSAADGTELTGTWTMEGNKLVGKFKRVDNGKELIAVREISGNELIQTYTYEGVEAKRIFKKE
modifications: PEPTIDE (1)...(131) wild-type rat intestinal fatty acid binding protein
B14: 126F, 72A (protein, listed as Rattus norvegicus)
chain: AFDGTWKVDRNENYEKFMEKMGINVVKRKLGAHDNLKLTITQEGNKFTVKESSNFRNIDVVFELGVDFAYSAADGTELTGTWTMEGNKLVGKFKRVDNGKELIAVREISGNELIQTYTYEGVEAKFIFKKE
modifications: PEPTIDE (1)...(131) wild-type rat intestinal fatty acid binding protein
B15: 126E, 72A (protein, listed as Rattus norvegicus)
chain: AFDGTWKVDRNENYEKFMEKMGINVVKRKLGAHDNLKLTITQEGNKFTVKESSNFRNIDVVFELGVDFAYSAADGTELTGTWTMEGNKLVGKFKRVDNGKELIAVREISGNELIQTYTYEGVEAKEIFKKE
modifications: PEPTIDE (1)...(131) wild-type rat intestinal fatty acid binding protein
B16: 126M, 72A (protein, listed as Rattus norvegicus)
chain: AFDGTWKVDRNENYEKFMEKMGINVVKRKLGAHDNLKLTITQEGNKFTVKESSNFRNIDVVFELGVDFAYSAADGTELTGTWTMEGNKLVGKFKRVDNGKELIAVREISGNELIQTYTYEGVEAKMIFKKE
modifications: PEPTIDE (1)...(131) wild-type rat intestinal fatty acid binding protein
B17: 119T, 72A (protein, listed as Rattus norvegicus)
chain: AFDGTWKVDRNENYEKFMEKMGINVVKRKLGAHDNLKLTITQEGNKFTVKESSNFRNIDVVFELGVDFAYSAADGTELTGTWTMEGNKLVGKFKRVDNGKELIAVREISGNELIQTYTTEGVEAKRIFKKE
modifications: PEPTIDE (1)...(131) wild-type rat intestinal fatty acid binding protein
B18: 11G, 72A (protein, listed as Rattus norvegicus)
chain: AFDGTWKVDRGENYEKFMEKMGINVVKRKLGAHDNLKLTITQEGNKFTVKESSNFRNIDVVFELGVDFAYSAADGTELTGTWTMEGNKLVGKFKRVDNGKELIAVREISGNELIQTYTYEGVEAKRIFKKE
modifications: PEPTIDE (1)...(131) wild-type rat intestinal fatty acid binding protein
B19: 11C, 72A (protein, listed as Rattus norvegicus)
chain: AFDGTWKVDRCENYEKFMEKMGINVVKRKLGAHDNLKLTITQEGNKFTVKESSNFRNIDVVFELGVDFAYSAADGTELTGTWTMEGNKLVGKFKRVDNGKELIAVREISGNELIQTYTYEGVEAKRIFKKE
modifications: PEPTIDE (1)...(131) wild-type rat intestinal fatty acid binding protein
B20: 126D, 72A (protein, listed as Rattus norvegicus)
chain: AFDGTWKVDRNENYEKFMEKMGINVVKRKLGAHDNLKLTITQEGNKFTVKESSNFRNIDVVFELGVDFAYSAADGTELTGTWTMEGNKLVGKFKRVDNGKELIAVREISGNELIQTYTYEGVEAKDIFKKE
modifications: PEPTIDE (1)...(131) wild-type rat intestinal fatty acid binding protein
B21: 126I, 72A (protein, listed as Rattus norvegicus)
chain: AFDGTWKVDRNENYEKFMEKMGINVVKRKLGAHDNLKLTITQEGNKFTVKESSNFRNIDVVFELGVDFAYSAADGTELTGTWTMEGNKLVGKFKRVDNGKELIAVREISGNELIQTYTYEGVEAKIIFKKE
modifications: PEPTIDE (1)...(131) wild-type rat intestinal fatty acid binding protein
B22: 126A, 72A (protein, listed as Rattus norvegicus)
chain: AFDGTWKVDRNENYEKFMEKMGINVVKRKLGAHDNLKLTITQEGNKFTVKESSNFRNIDVVFELGVDFAYSAADGTELTGTWTMEGNKLVGKFKRVDNGKELIAVREISGNELIQTYTYEGVEAKAIFKKE
modifications: PEPTIDE (1)...(131) wild-type rat intestinal fatty acid binding protein
B23: 119V, 72A (protein, listed as Rattus norvegicus)
chain: AFDGTWKVDRNENYEKFMEKMGINVVKRKLGAHDNLKLTITQEGNKFTVKESSNFRNIDVVFELGVDFAYSAADGTELTGTWTMEGNKLVGKFKRVDNGKELIAVREISGNELIQTYTVEGVEAKRIFKKE
modifications: PEPTIDE (1)...(131) wild-type rat intestinal fatty acid binding protein

Test: Baseline fluorescence ratio Ro of probe in absence of analyte
Conditions: baseline fluorescence ratio of probe
For B1, the Ro was 0.218.
Molecule B2 has a Ro of 0.313.

Same assay, conditions: baseline fluorescence ratio of probe, no fatty acid
B3 showed an AvgOfRo of 0.31.
With B4 the AvgOfRo was 0.44.
In the case of B1, the AvgOfRo is reported as 0.25.
For B5, the AvgOfRo was 0.38.
For B6, the AvgOfRo was 0.31.
Work on B7 yielded an AvgOfRo of 0.34.
B8 gave an AvgOfRo of 0.37.
Work on B9 yielded an AvgOfRo of 0.44.
With B10 the AvgOfRo was 0.52.
With B11 the AvgOfRo was 0.28.
Molecule B2 has an AvgOfRo of 0.31 and a Ro of 0.313.
For B12, the AvgOfRo was 0.31.
B13 showed an AvgOfRo of 0.33.
For B14, the AvgOfRo was 0.38.
In the case of B15, the AvgOfRo is reported as 0.33.
B16 gave an AvgOfRo of 0.32.
B17 gave an AvgOfRo of 0.25.
B18 gave an AvgOfRo of 0.14.
Work on B19 yielded an AvgOfRo of 0.45.
B20 gave an AvgOfRo of 0.38.
Work on B21 yielded an AvgOfRo of 0.30.
B22 gave an AvgOfRo of 0.19.
B23 showed an AvgOfRo of 0.33 and a Ro of 0.344.
